Like-named read-outs stand apart in the source and are kept apart here. These are yes or no findings as the source states them, for the method shown. In cells and extracts the contact can be indirect. Some entries that bind do so weakly or less than the wild type.
Key:
Assay in all cases: co-IP
[1] = target: Glucocorticoid receptor (human (endogenous in THP-1)) (UniProt P04150)
[2] = target: Glucocorticoid receptor (human (endogenous in THP-1)) (UniProt P04150); remark: listed apart in the source
[3] = target: Glucocorticoid receptor (monocyte-derived macrophages) (human (endogenous in MDM)) (UniProt P04150)
[4] = target: Alpha-1-antitrypsin (human (endogenous in THP-1)) (UniProt P01009)

The chains behind the UniProt entries cited, without tags or fusion partners. Residues count along the entry.
UniProt P04150: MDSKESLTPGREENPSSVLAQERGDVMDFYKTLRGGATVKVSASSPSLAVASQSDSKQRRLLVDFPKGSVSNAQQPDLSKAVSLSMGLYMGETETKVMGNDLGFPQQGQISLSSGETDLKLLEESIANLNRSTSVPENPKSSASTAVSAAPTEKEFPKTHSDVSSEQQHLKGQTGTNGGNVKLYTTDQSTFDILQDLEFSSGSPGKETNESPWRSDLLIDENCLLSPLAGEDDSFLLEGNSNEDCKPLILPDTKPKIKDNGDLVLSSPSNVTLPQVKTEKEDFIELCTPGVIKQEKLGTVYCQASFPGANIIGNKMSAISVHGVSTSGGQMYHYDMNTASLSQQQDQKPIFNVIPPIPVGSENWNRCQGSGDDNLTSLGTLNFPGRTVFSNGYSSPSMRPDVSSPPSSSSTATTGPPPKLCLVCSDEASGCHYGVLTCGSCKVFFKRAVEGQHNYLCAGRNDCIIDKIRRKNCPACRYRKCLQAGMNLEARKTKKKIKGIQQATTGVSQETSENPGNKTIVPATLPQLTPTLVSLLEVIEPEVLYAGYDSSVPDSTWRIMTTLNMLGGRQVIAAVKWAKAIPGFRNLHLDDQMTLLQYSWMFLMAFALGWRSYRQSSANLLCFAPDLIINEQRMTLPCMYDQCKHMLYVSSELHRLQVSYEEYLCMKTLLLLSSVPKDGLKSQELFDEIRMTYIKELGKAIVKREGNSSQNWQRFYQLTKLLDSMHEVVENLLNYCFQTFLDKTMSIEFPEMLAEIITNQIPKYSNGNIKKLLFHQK
UniProt P01009, residues 25-418: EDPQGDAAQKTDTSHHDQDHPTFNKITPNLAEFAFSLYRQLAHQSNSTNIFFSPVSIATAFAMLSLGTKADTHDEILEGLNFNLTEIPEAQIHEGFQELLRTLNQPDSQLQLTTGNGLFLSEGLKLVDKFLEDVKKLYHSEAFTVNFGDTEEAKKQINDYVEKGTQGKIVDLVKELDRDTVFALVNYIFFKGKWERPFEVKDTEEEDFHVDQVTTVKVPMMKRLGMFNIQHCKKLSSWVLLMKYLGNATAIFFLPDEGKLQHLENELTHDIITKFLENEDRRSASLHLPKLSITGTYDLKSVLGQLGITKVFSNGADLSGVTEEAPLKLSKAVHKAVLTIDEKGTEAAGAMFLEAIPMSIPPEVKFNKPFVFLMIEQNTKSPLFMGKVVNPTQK

Q: Which binding [1] does the source give for “Alpha-1-antitrypsin (from UniProt P01009 25-418)” here?
A: The binding was “binds”.

Q: What about the binding [2] of the same substance?
A: The binding was “binds”.

Q: How did the binding [3] turn out when “Alpha-1-antitrypsin (monocyte-derived macrophages, PiMM) (from UniProt P01009 25-418)” was run?
A: Its binding is “binds”.

Q: For “Glucocorticoid receptor (from UniProt P04150 1-777)”, which binding [4] is on record?
A: The binding was “binds”.

Reference: paper doi:10.1101/2022.03.11.483896
